Experimental data as given in patent publication US20100022559A1, “BISOXIMES AS FUNGICIDES” (BAYER CROPSCIENCE AG, priority 2006, published 2010).
Some of these results come from one statement about several compounds together. At least one structure is not confirmed: it was looked up by name or label, or the drawing left a doubt.

system: Botrytis cinerea; assay: Botrytis test (bean)/protective; assay type: in vivo; details: active compound concentration 250 ppm, protective, evaluation 2 days after inoculation

| Compound | efficacy [%] |
| --- | --- |
| COc1ccc(C(C)=NOCC(C)CON=C(C)c2ccc(OC)c(C)n2)nc1C (centres unmarked) [Compound 825] | ≥ 70 |
| CCCC(=NOCC(C)CON=C(CCC)c1cccc(C)n1)c1cccc(C)n1 (centres unmarked) [Compound 112] | ≥ 70 |
| CC(=NOC[Si](C)(CON=C(C)c1cc(C)cc(C)n1)C(C)C)c1cc(C)cc(C)n1 [Compound 836] | ≥ 70 |
| CC(=NOCCCON=C(C)c1ccc(C)c(C)n1)c1ccc(C)c(C)n1 [Compound 72] | ≥ 70 |
| COC(CON=C(C)c1cccc(C)n1)CON=C(C)c1cccc(C)n1 (centres unmarked) [Compound 294] | ≥ 70 |
| C/C(=N\OCC1(CON)CC1)c1ccc(C)c(C)n1 [XII-8, (1E)-1-(5,6-dimethylpyridin-2-yl)ethanone O-({1-[(aminooxy)methyl]-cyclopropyl}methyl)oxime] | ≥ 70 |
| CC(=NOCC(C)(C)CON=C(c1ccccc1)c1cccc(C)n1)c1cccc(C)n1 (mixture of isomers) [Compound 880] | ≥ 70 |
| CC(=NOCCOCCON=C(C)c1cccc(C)n1)c1cccc(C)n1 [Compound 181] | ≥ 70 |
| CC(=NOCC(C)(C)CON=C(C)c1ccc(C)c(C)n1)c1cc(C)cc(C)n1 [Compound 697] | ≥ 70 |
| CC(=NOCC1(CON=C(C)c2ccc(C)c(C)n2)CCCC1)c1ccc(C)c(C)n1 [Compound 588] | ≥ 70 |
| CC(=NOCC(C)(C)CON=C(C)c1ccc(C)c(C)n1)c1cccc(C)n1 [Compound 799] | ≥ 70 |
| CCC(=NOCCCON=C(CC)c1ccc(C)c(C)n1)c1ccc(C)c(C)n1 (mixture of isomers) [Compound 236] | ≥ 70 |
| CC(=NOCC(C)CON=C(C)c1cccc(NCC2CC2)n1)c1cccc(NCC2CC2)n1 (centres unmarked) [Compound 791] | ≥ 70 |

system: Alternaria solani; assay: Alternaria test (tomato)/protective; assay type: in vivo; details: active compound concentration 500 ppm, protective, evaluation 7 days after inoculation

| Compound | efficacy [%] |
| --- | --- |
| COc1ccc(C(C)=NOCC(C)CON=C(C)c2ccc(OC)c(C)n2)nc1C (centres unmarked) [Compound 825] | ≥ 70 |
| CCCC(=NOCC(C)CON=C(CCC)c1cccc(C)n1)c1cccc(C)n1 (centres unmarked) [Compound 112] | ≥ 70 |
| CC(=NOC[Si](C)(CON=C(C)c1cc(C)cc(C)n1)C(C)C)c1cc(C)cc(C)n1 [Compound 836] | ≥ 70 |
| CC(=NOCCCON=C(C)c1ccc(C)c(C)n1)c1ccc(C)c(C)n1 [Compound 72] | ≥ 70 |
| COC(CON=C(C)c1cccc(C)n1)CON=C(C)c1cccc(C)n1 (centres unmarked) [Compound 294] | ≥ 70 |
| C/C(=N\OCC1(CON)CC1)c1ccc(C)c(C)n1 [XII-8, (1E)-1-(5,6-dimethylpyridin-2-yl)ethanone O-({1-[(aminooxy)methyl]-cyclopropyl}methyl)oxime] | ≥ 70 |
| CC(=NOCC(C)(C)CON=C(c1ccccc1)c1cccc(C)n1)c1cccc(C)n1 (mixture of isomers) [Compound 880] | ≥ 70 |
| CC(=NOCCOCCON=C(C)c1cccc(C)n1)c1cccc(C)n1 [Compound 181] | ≥ 70 |
| CC(=NOCC(C)(C)CON=C(C)c1ccc(C)c(C)n1)c1cc(C)cc(C)n1 [Compound 697] | ≥ 70 |
| CC(=NOCC1(CON=C(C)c2ccc(C)c(C)n2)CCCC1)c1ccc(C)c(C)n1 [Compound 588] | ≥ 70 |
| CC(=NOCC(C)(C)CON=C(C)c1ccc(C)c(C)n1)c1cccc(C)n1 [Compound 799] | ≥ 70 |
| CCC(=NOCCCON=C(CC)c1ccc(C)c(C)n1)c1ccc(C)c(C)n1 (mixture of isomers) [Compound 236] | ≥ 70 |
| CC(=NOCC(C)CON=C(C)c1cccc(NCC2CC2)n1)c1cccc(NCC2CC2)n1 (centres unmarked) [Compound 791] | ≥ 70 |

system: Venturia inaequalis; assay: Venturia test (apple)/protective; assay type: in vivo; details: active compound concentration 100 ppm, protective, evaluation 10 days after inoculation

| Compound | efficacy [%] |
| --- | --- |
| COc1ccc(C(C)=NOCC(C)CON=C(C)c2ccc(OC)c(C)n2)nc1C (centres unmarked) [Compound 825] | ≥ 70 |
| CCCC(=NOCC(C)CON=C(CCC)c1cccc(C)n1)c1cccc(C)n1 (centres unmarked) [Compound 112] | ≥ 70 |
| COC(CON=C(C)c1cccc(C)n1)CON=C(C)c1cccc(C)n1 (centres unmarked) [Compound 294] | ≥ 70 |
| C/C(=N\OCC1(CON)CC1)c1ccc(C)c(C)n1 [XII-8, (1E)-1-(5,6-dimethylpyridin-2-yl)ethanone O-({1-[(aminooxy)methyl]-cyclopropyl}methyl)oxime] | ≥ 70 |
| CC(=NOCC(C)(C)CON=C(c1ccccc1)c1cccc(C)n1)c1cccc(C)n1 (mixture of isomers) [Compound 880] | ≥ 70 |
| CC(=NOCC(C)(C)CON=C(C)c1ccc(C)c(C)n1)c1cc(C)cc(C)n1 [Compound 697] | ≥ 70 |
| CC(=NOCC(C)(C)CON=C(C)c1ccc(C)c(C)n1)c1cccc(C)n1 [Compound 799] | ≥ 70 |
| CCC(=NOCCCON=C(CC)c1ccc(C)c(C)n1)c1ccc(C)c(C)n1 (mixture of isomers) [Compound 236] | ≥ 70 |

system: Puccinia recondita; assay: Puccinia test (wheat)/protective; assay type: in vivo; details: active compound concentration 500 ppm, protective, evaluation 8-10 days after inoculation

| Compound | efficacy [%] |
| --- | --- |
| COc1ccc(C(C)=NOCC(C)CON=C(C)c2ccc(OC)c(C)n2)nc1C (centres unmarked) [Compound 825] | ≥ 70 |
| CCCC(=NOCC(C)CON=C(CCC)c1cccc(C)n1)c1cccc(C)n1 (centres unmarked) [Compound 112] | ≥ 70 |
| CC(=NOC[Si](C)(CON=C(C)c1cc(C)cc(C)n1)C(C)C)c1cc(C)cc(C)n1 [Compound 836] | ≥ 70 |
| C/C(=N\OCC1(CON)CC1)c1ccc(C)c(C)n1 [XII-8, (1E)-1-(5,6-dimethylpyridin-2-yl)ethanone O-({1-[(aminooxy)methyl]-cyclopropyl}methyl)oxime] | ≥ 70 |
| CC(=NOCC(C)(C)CON=C(c1ccccc1)c1cccc(C)n1)c1cccc(C)n1 (mixture of isomers) [Compound 880] | ≥ 70 |
| CC(=NOCC(C)(C)CON=C(C)c1ccc(C)c(C)n1)c1cc(C)cc(C)n1 [Compound 697] | ≥ 70 |
| CC(=NOCC(C)(C)CON=C(C)c1ccc(C)c(C)n1)c1cccc(C)n1 [Compound 799] | ≥ 70 |
| CCC(=NOCCCON=C(CC)c1ccc(C)c(C)n1)c1ccc(C)c(C)n1 (mixture of isomers) [Compound 236] | ≥ 70 |
| CC(=NOCC(C)CON=C(C)c1cccc(NCC2CC2)n1)c1cccc(NCC2CC2)n1 (centres unmarked) [Compound 791] | ≥ 70 |

system: Sphaerotheca fuliginea; assay: Sphaerotheca test (cucumber)/protective; assay type: in vivo; details: active compound concentration 500 ppm, protective, evaluation 7 days after inoculation

| Compound | efficacy [%] |
| --- | --- |
| CCCC(=NOCC(C)CON=C(CCC)c1cccc(C)n1)c1cccc(C)n1 (centres unmarked) [Compound 112] | ≥ 70 |
| CC(=NOC[Si](C)(CON=C(C)c1cc(C)cc(C)n1)C(C)C)c1cc(C)cc(C)n1 [Compound 836] | ≥ 70 |
| C/C(=N\OCC1(CON)CC1)c1ccc(C)c(C)n1 [XII-8, (1E)-1-(5,6-dimethylpyridin-2-yl)ethanone O-({1-[(aminooxy)methyl]-cyclopropyl}methyl)oxime] | ≥ 70 |
| CC(=NOCC(C)(C)CON=C(C)c1ccc(C)c(C)n1)c1cc(C)cc(C)n1 [Compound 697] | ≥ 70 |
| CC(=NOCC1(CON=C(C)c2ccc(C)c(C)n2)CCCC1)c1ccc(C)c(C)n1 [Compound 588] | ≥ 70 |
| CC(=NOCC(C)(C)CON=C(C)c1ccc(C)c(C)n1)c1cccc(C)n1 [Compound 799] | ≥ 70 |
| CCC(=NOCCCON=C(CC)c1ccc(C)c(C)n1)c1ccc(C)c(C)n1 (mixture of isomers) [Compound 236] | ≥ 70 |

system: Pyrenophora teres; assay: Pyrenophora teres test (barley)/protective; assay type: in vivo; details: active compound concentration 1000 ppm, protective, evaluation 8 days after inoculation

| Compound | efficacy [%] |
| --- | --- |
| CCCC(=NOCC(C)CON=C(CCC)c1cccc(C)n1)c1cccc(C)n1 (centres unmarked) [Compound 112] | ≥ 70 |
| CC(=NOCCCON=C(C)c1ccc(C)c(C)n1)c1ccc(C)c(C)n1 [Compound 72] | ≥ 70 |
| COC(CON=C(C)c1cccc(C)n1)CON=C(C)c1cccc(C)n1 (centres unmarked) [Compound 294] | ≥ 70 |
| CC(=NOCCOCCON=C(C)c1cccc(C)n1)c1cccc(C)n1 [Compound 181] | ≥ 70 |
| CCC(=NOCCCON=C(CC)c1ccc(C)c(C)n1)c1ccc(C)c(C)n1 (mixture of isomers) [Compound 236] | ≥ 70 |
| CC(=NOCC(C)CON=C(C)c1cccc(NCC2CC2)n1)c1cccc(NCC2CC2)n1 (centres unmarked) [Compound 791] | ≥ 70 |
